Laboratory results taken from PMC6007307.
Results are given in words; binding and its absence hold for the method and conditions named. In cells and extracts the contact can be indirect. A yes stands for co-enrichment or nearness to the bait. Other partners may have been found. No binding means not detected with the bait. Sequences can lack the tags named with a protein.

Target: T1, FLAG-tagged IFIT5 (human) (UniProt Q13325)
T1 sequence: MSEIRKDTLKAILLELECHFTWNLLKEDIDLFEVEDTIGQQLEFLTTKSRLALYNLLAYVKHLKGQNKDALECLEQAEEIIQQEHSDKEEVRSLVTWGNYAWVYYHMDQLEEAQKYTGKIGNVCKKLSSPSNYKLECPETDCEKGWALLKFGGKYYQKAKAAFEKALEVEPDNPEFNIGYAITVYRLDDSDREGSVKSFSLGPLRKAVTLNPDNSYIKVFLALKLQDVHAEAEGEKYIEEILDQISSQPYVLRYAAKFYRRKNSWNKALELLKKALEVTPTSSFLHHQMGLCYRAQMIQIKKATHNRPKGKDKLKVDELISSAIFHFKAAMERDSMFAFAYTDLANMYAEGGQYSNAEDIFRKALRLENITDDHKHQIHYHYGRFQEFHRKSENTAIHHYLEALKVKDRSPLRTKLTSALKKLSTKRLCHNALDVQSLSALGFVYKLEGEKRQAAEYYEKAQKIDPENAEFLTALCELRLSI
Experiment: affinity purification with mass spectrometry; SILAC; anti-FLAG-M2 affinity gel, 4°C 18 h, on Benzonase nuclease treated lysates of transfected HEK293T cells treated with 1000 U/ml IFN-alpha for 16 h; three biological replicates

binding: no binding
Substance: IFIT3 (endogenous, IFN-stimulated HEK293T) (from UniProt O14879 1-490)
